Assay results reported in PubChem BioAssay AID504834 (National Center for Advancing Translational Sciences (NCATS), 2011).
Screen size: about 320,000 compounds; about 22,000 (6.9%) were called active. Inconclusive means that the source gave no clear call. Such entries were picked first, then a sample of the others. Calls come from the whole dose curve; as a rule, active = well fitted inhibition curve with a large enough effect; inconclusive = small, poorly fitted or top-dose-only effect, or another doubt; inactive = no such curve, though single readings can be large or run the other way. Potencies of inconclusive entries are doubtful fits and often do not repeat.

Test: Primary qHTS for delayed death inhibitors of the malarial parasite plastid, 96 hour incubation
Conditions: P. falciparum luciferase reporter growth; series mostly up to 28.7 µM
Summary of the method: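 96 h incubation, 37 C, 5% CO2, of luciferase-reporter P. falciparum-infected RBCs (2% hematocrit, 0.05% parasitemia final) with test compounds; endpoint luminescence.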
% is set by controls: 0 for no effect and ±100 for the full control effect; potency is the fitted concentration of half-maximal effect.

Row | Compound | Potency | activity change, negative = inhibition
1 | Cc1ccc(SCCNC(=O)c2ccc(CN3CCOCC3)cc2)cc1 | inconclusive: 8.28 µM [inhibitor, partial curve, poor fit] | –
2 | CCCCCCCNC(=O)COc1ccc2c(c1)C(=O)CC(C)(C)O2 | inconclusive: 11.7 µM [inhibitor, single point] | –
3 | COc1ccc2nc(NC(=O)c3ccc(-c4cccc([N+](=O)[O-])c4)o3)sc2c1 | inconclusive: 18.5 µM [inhibitor, single point] | –
4 | COc1ccc(Cl)cc1N(CC(=O)N/N=C/c1ccc(OC(C)C)cc1)S(=O)(=O)c1ccc(C)c([N+](=O)[O-])c1 | inconclusive: 3.7 µM [inhibitor, single point] | –
5 | CCOc1ccc(C2NC(=O)c3ccccc3O2)cc1OC (stereo unspecified) | inactive | –
6 | Cc1cc(-c2nc3ncccc3o2)ccc1NC(=O)CC(C)C | active: 4.15 µM | –
7 | Oc1ccc(-c2cnns2)c(O)c1 | active: 11.7 µM | –
8 | Cc1ccc(C)c(-n2c(SCC(N)=O)nnc2-c2ccccn2)c1 | inactive | –
9 | CCCCCOc1ccc(NC2=CC(=O)CCC2)cc1 | inconclusive: 11.7 µM [inhibitor, single point] | –
10 | CCOC(=O)N1CCC(n2c(SCC(=O)N3CCC(C)CC3)nc3ccccc3c2=O)CC1 | active: 4.65 µM | –
11 | CCN(CC(=O)Nc1c(F)cccc1F)C(=O)C1=COCCO1 | inactive | –
12 | CCNc1nc(NCC)n2c(SCC(=O)NCC3CCCCC3)nnc2n1 | inactive | –
13 | CCOc1ccc2[nH]c3c(c2c1)CNCC3 | inactive | –
14 | Cc1ccc(Nc2cc(C)nc3nnnn23)cc1 | inconclusive: 10.4 µM [inhibitor, single point] | –
15 | CC(C)(C)C1=C(C#N)C(c2ccc3c(c2)OCO3)C(C#N)=C(N)O1 (stereo unspecified) | inconclusive: 18.5 µM [inhibitor, single point] | –
16 | CCCCOC(=O)Nc1ccc(OC)cc1S(=O)(=O)N1CCOCC1 | inactive | –
17 | Cc1c(C(=O)OCC(=O)N2CCCC2=O)oc2ccccc12 | inactive | –
18 | Cc1c(Cl)cccc1NC(=O)CN1CCN(CCN=CC2=C(O)CC(c3ccccc3)CC2=O)CC1 (stereo unspecified) | inconclusive: 2.94 µM [inhibitor, single point] | –
19 | Cc1nc(CNC(=O)C2CCC(=O)N(Cc3cccc(F)c3)C2)sc1C (stereo unspecified) | inconclusive: 18.5 µM [inhibitor, single point] | –
20 | Cc1ccc(NC(=O)COC(=O)C2CC2C)c(S(=O)(=O)N2CCCCC2)c1 (stereo unspecified) | inconclusive: 13.1 µM [inhibitor, partial curve, poor fit] | –
21 | CCOC(=O)c1cnc(Nc2nc3ccccc3o2)nc1CSC(=S)N(CC)CC | inconclusive: 1.47 µM [inhibitor, full curve] | –
22 | CC1Cc2ccccc2N1S(=O)(=O)c1cccc(C(=O)OCC(=O)NC2CCS(=O)(=O)C2)c1 (stereo unspecified) | inconclusive: 10.4 µM [inhibitor, partial curve, poor fit] | –
23 | CN1CCN(/N=C/c2c(O)n(C)c(=O)n(C)c2=O)CC1 | inconclusive: 7.38 µM [inhibitor, partial curve, poor fit] | –
24 | COc1ccc(NS(=O)(=O)c2ccc(OCC(=O)N3CCOCC3)cc2)cc1Cl | inactive | –

Row | Compound | Potency | activity change, negative = inhibition
25 | O=C(Oc1ccc(Br)cc1C(=S)N1CCOCC1)c1ccc(F)cc1 | inactive | –
26 | COc1ccc(NC(=O)C2CC(=O)N(CCc3ccc(Cl)cc3)C2)cc1 (stereo unspecified) | inactive | –
27 | CSc1ncccc1C(=O)N1CCCC(C(=O)c2cc(F)ccc2F)C1 (stereo unspecified) | active: 9.28 µM | –
28 | CC(=O)Nc1ccc(NC(=O)C(=O)NCC(c2ccco2)N2CCc3ccccc32)cc1 (stereo unspecified) | active: 10.4 µM | –
29 | O=C(/C=C/c1ccc(F)cc1)N1CC[C@@]2(O)CCCC[C@H]2C1 | inconclusive: 7.38 µM [inhibitor, partial curve] | –
30 | CN1CCN(NC(=O)c2cn(-c3ccccc3)nc2-c2cccc(Br)c2)CC1 | inconclusive: 16.5 µM [inhibitor, single point] | –
31 | COc1ccc(-c2[nH]ncc2CN(C)C(C)c2ccncn2)c(F)c1 (stereo unspecified) | inconclusive: 13.1 µM [inhibitor, single point] | –
32 | Cc1coc2cc3oc(=O)c(CCC(=O)NC4CC4)c(C)c3cc12 | inconclusive: 10.4 µM [inhibitor, partial curve] | –
33 | CCCCc1cc(=O)oc2cc(O)ccc12 | inconclusive: 18.5 µM [inhibitor, single point] | –
34 | COc1ccc(S(=O)(=O)NC(C)C(=O)Nc2ccc3c(c2)OCO3)cc1OC (stereo unspecified) | inconclusive: 16.5 µM [inhibitor, single point] | –
35 | CN(c1ccc(C(=O)NCCSCc2ccc(Cl)cc2)cc1)S(=O)(=O)c1ccccc1 | inconclusive: 2.62 µM [inhibitor, partial curve, poor fit] | –
36 | Cc1ccc(C(=O)N/C(=C\c2ccc(F)cc2)C(=O)NCCN2CCOCC2)cc1 | active: 6.57 µM | –
37 | O=C(O)c1cccc(N2C(=O)CCC2=O)c1 | inactive | –
38 | COc1ccc(CCNC(=O)c2cc(C)oc2C)cc1 | inactive | –
39 | O=C(NCC(=O)N(c1ccccc1F)C(C(=O)NC1CCCC1)c1cccnc1)c1ccco1 (stereo unspecified) | inconclusive: 10.4 µM [inhibitor, single point] | –
40 | COc1ccc([N+](=O)[O-])cc1NS(=O)(=O)c1ccc(C(=O)N2CCCC2)cc1 | inconclusive: 2.33 µM [inhibitor, full curve] | –
41 | CCCCn1c(N)c(N(CC(C)C)C(=O)c2ccc(Cl)c(S(=O)(=O)N3CCCC3)c2)c(=O)[nH]c1=O | inconclusive: 9.28 µM [inhibitor, single point] | –
42 | COc1ccc(/C=N/n2c(N)nc(-c3ccccc3)c2-c2ccccc2)cc1 | inconclusive: 8.28 µM [inhibitor, partial curve, poor fit] | –
43 | O=C(Nc1ccc(Oc2ccccc2)cc1)C1CC1 | – | inactive: -41.3% [at 1.15 µM]
44 | O=C(NCc1ccc(F)cc1)c1cccc2c1C(=O)c1ccc(N3CCOCC3)cc1S2(=O)=O | inconclusive: 0.0657 µM [inhibitor, full curve, poor fit] | –
45 | COc1ccc(NC(=O)CSc2nc3ccccc3nc2N2CCCC2)cc1 | inconclusive: 10.4 µM [inhibitor, single point] | –
46 | CCCCc1ncc(CN2CCC(n3nccc3NC(=O)C(OC)c3ccccc3)CC2)[nH]1 (stereo unspecified) | inconclusive: 18.5 µM [inhibitor, single point] | –
47 | CC(C)(C)NC(=O)CSc1nnc(-c2ccccc2)c(-c2ccccc2)n1 | inactive | –
48 | CCc1nnc(NS(=O)(=O)c2ccccc2)s1 | inconclusive: 18.5 µM [inhibitor, single point] | –

Reformatted with tabs: 13 of the compounds above.
Row	Compound	Potency	activity change, negative = inhibition
17	Cc1c(C(=O)OCC(=O)N2CCCC2=O)oc2ccccc12	inactive	–
18	Cc1c(Cl)cccc1NC(=O)CN1CCN(CCN=CC2=C(O)CC(c3ccccc3)CC2=O)CC1 (stereo unspecified)	inconclusive: 2.94 µM [inhibitor, single point]	–
19	Cc1nc(CNC(=O)C2CCC(=O)N(Cc3cccc(F)c3)C2)sc1C (stereo unspecified)	inconclusive: 18.5 µM [inhibitor, single point]	–
20	Cc1ccc(NC(=O)COC(=O)C2CC2C)c(S(=O)(=O)N2CCCCC2)c1 (stereo unspecified)	inconclusive: 13.1 µM [inhibitor, partial curve, poor fit]	–
21	CCOC(=O)c1cnc(Nc2nc3ccccc3o2)nc1CSC(=S)N(CC)CC	inconclusive: 1.47 µM [inhibitor, full curve]	–
22	CC1Cc2ccccc2N1S(=O)(=O)c1cccc(C(=O)OCC(=O)NC2CCS(=O)(=O)C2)c1 (stereo unspecified)	inconclusive: 10.4 µM [inhibitor, partial curve, poor fit]	–
23	CN1CCN(/N=C/c2c(O)n(C)c(=O)n(C)c2=O)CC1	inconclusive: 7.38 µM [inhibitor, partial curve, poor fit]	–
24	COc1ccc(NS(=O)(=O)c2ccc(OCC(=O)N3CCOCC3)cc2)cc1Cl	inactive	–
25	O=C(Oc1ccc(Br)cc1C(=S)N1CCOCC1)c1ccc(F)cc1	inactive	–
26	COc1ccc(NC(=O)C2CC(=O)N(CCc3ccc(Cl)cc3)C2)cc1 (stereo unspecified)	inactive	–
27	CSc1ncccc1C(=O)N1CCCC(C(=O)c2cc(F)ccc2F)C1 (stereo unspecified)	active: 9.28 µM	–
28	CC(=O)Nc1ccc(NC(=O)C(=O)NCC(c2ccco2)N2CCc3ccccc32)cc1 (stereo unspecified)	active: 10.4 µM	–
29	O=C(/C=C/c1ccc(F)cc1)N1CC[C@@]2(O)CCCC[C@H]2C1	inconclusive: 7.38 µM [inhibitor, partial curve]	–

(more compounds)

Row | Compound | Potency | activity change, negative = inhibition
49 | CCCCCn1c(SCc2cccc(C)c2)nc2c1c(=O)[nH]c(=O)n2C | active: 9.28 µM | –
50 | CCOCCOC(=O)c1[nH]c2c(c1C)C(=O)CC(c1cc(OC)c(OC)c(OC)c1)C2 (stereo unspecified) | inconclusive: 18.5 µM [inhibitor, single point] | –
51 | CCOP(=O)(OCC)/C(=N/OC(=O)c1ccc(Cl)cc1Cl)C(N)=O | inactive | –
52 | O=C(NC1CCCCC1)C(c1ccccc1)N(Cc1cccnc1)C(=O)c1csnn1 (stereo unspecified) | inactive | –
53 | C#CCOCCOCCOCCNc1nc(N2CCN(C(=O)[C@H](C)n3cc(CCCN=C(N)N)nn3)CC2)nc(N2CCN(C(=O)[C@H](Cc3ccc(O)cc3)n3cc(CCO)nn3)CC2)n1 | inconclusive: 10.4 µM [inhibitor, partial curve, poor fit] | –
54 | CCOC(=O)N1CCN(C(=O)CS(=O)(=O)c2cn(Cc3ccc(Cl)cc3)c3ccccc23)CC1 | inconclusive: 10.4 µM [inhibitor, single point] | –
55 | COc1cc(C2C(C(=O)c3ccco3)=C(O)C(=O)N2c2cc(C)on2)ccc1OCc1ccccc1 (stereo unspecified) | inactive | –
56 | CCCOc1c(Br)cc(C(=O)OCC(=O)NC(=O)c2cccn2C)cc1OC | inactive | –
57 | CCC(=O)C(C#N)(c1ccc(OC)c(OC)c1)C(C)C (stereo unspecified) | inactive | –
58 | Nc1ccccc1C(=O)NCc1ccco1 | inactive | –
59 | CC(C)c1ccc(/C=C/c2ccc(=O)n(C)n2)cc1 | inactive | –
60 | CN1C(=O)C(=O)N(CC(=O)N2CCc3ccccc32)C1=O | inconclusive: 0.147 µM [inhibitor, partial curve] | –
61 | COc1ccc(CCNC(=O)Nc2ccc([N+](=O)[O-])cc2)cc1OC | inactive | –
62 | O=C(O)c1cn(-c2ccc(F)cc2)c2cc(N3CCNCC3)c(F)cc2c1=O | active: 3.38 µM | –
63 | Cc1c(OC(C)C(=O)NCCCN2CCOCC2)ccc2c1oc(=O)c1ccccc12 (stereo unspecified) | inconclusive: 9.28 µM [inhibitor, partial curve] | –
64 | CCOC(=O)c1[nH]c(C)c(C(=O)Nc2ccccc2F)c1C | inconclusive: 0.0329 µM [inhibitor, full curve] | –
65 | Cc1ccc(C)c(S(=O)(=O)N2CCCOC2CNC(=O)C(=O)NC2CCCC2)c1 (stereo unspecified) | inconclusive: 18.5 µM [inhibitor, single point] | –
66 | O=C(NCCCN1CCCC1)c1ccc(CS(=O)(=O)c2c(Cl)cccc2Cl)o1 | inconclusive: 18.5 µM [inhibitor, partial curve, poor fit] | –
67 | CCCN(CCC)CCN1C(=O)C2C(C(=O)Nc3ccc(C)cc3)C3C=CC2(O3)C1C(=O)NC1CCCCC1 (stereo unspecified) | inconclusive: 4.15 µM [inhibitor, partial curve, poor fit] | –
68 | CCn1c(SCC(=O)Nc2ccc(Cl)cc2)nc2nc3c(cc2c1=O)CCCC3 | active: 13.1 µM | –
69 | CCN(CCN1CCCC1)C(=O)c1cc(COc2ccccc2SC)on1 | inconclusive: 18.5 µM [inhibitor, single point] | –
70 | COC(=O)c1cc2c(C)c(C)c3ccccn3c-2c1C(=O)OC | active: 13.1 µM | –
71 | Cc1ccc(-c2nc(CS(=O)CC(=O)NCCN3CCOCC3)c(C)o2)cc1 (stereo unspecified) | inactive | –
